Measurements reported in PubChem BioAssay AID743121 (NCATS, 2013)

Screen: 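Genes whose silencing strengthens cell killing by camptothecin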 (primary screen)
Cells: MDA-MB-231 cells, a human breast cancer line
Reagent: single siRNA against human genes, 20 nM siRNA (0.8 pmol per well)
Time to read-out: 120 h (drug added 48 h after transfection, read 72 h later)
Treatment: camptothecin 20 nM (about EC30) for 72 h; vehicle 0.1% DMSO in parallel plates
Detection: 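Cell viability by ATP luminescence (CellTiter-Glo) as % of non-targeting siRNA wells, and the log2 ratio of viability without drug over viability with camptothecin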
Direction: log2 vehicle/camptothecin viability: higher = stronger sensitisation to camptothecin
Active means: 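Each gene scored by redundant siRNA activity (RSA) over its individual siRNA ratios; a gene is called active at p < 0.001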
The whole screen tested about 26,000 reagents; below is a random part of them. 167 of all reagents (0.63%) were called active. 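Calls are per gene from RSA p-values that are not deposited; an individual active-marked siRNA can sensitise only weakly.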 The numbers tell different reagents against one gene apart. Further read-outs or replicates are left out here.

| target gene | reagent no. | log2 vehicle/camptothecin viability | Outcome |
| --- | --- | --- | --- |
| RAB11B (RAB11B, member RAS oncogene family) | 1 | -0.345 | inactive |
| RAB11B (RAB11B, member RAS oncogene family) | 2 | -0.0184 | inactive |
| RAB11B (RAB11B, member RAS oncogene family) | 3 | -0.168 | inactive |
| TRAF3 (TNF receptor associated factor 3) | 1 | 0.264 | inactive |
| TRAF3 (TNF receptor associated factor 3) | 2 | 0.0644 | inactive |
| TRAF3 (TNF receptor associated factor 3) | 3 | -0.261 | inactive |
| TRAF3 (TNF receptor associated factor 3) | 4 | -0.425 | inactive |
| PHF6 (PHD finger protein 6) | 1 | -0.221 | inactive |
| PHF6 (PHD finger protein 6) | 2 | -0.159 | inactive |
| PHF6 (PHD finger protein 6) | 3 | -0.34 | inactive |
| PHF6 (PHD finger protein 6) | 4 | -0.308 | inactive |
| PDK1 (pyruvate dehydrogenase kinase 1) | 1 | -0.223 | inactive |
| PDK1 (pyruvate dehydrogenase kinase 1) | 2 | 0.14 | inactive |
| PDK1 (pyruvate dehydrogenase kinase 1) | 3 | -0.418 | inactive |
| PDK1 (pyruvate dehydrogenase kinase 1) | 4 | -0.177 | inactive |
| ULK4 (unc-51 like kinase 4) | 1 | -0.405 | inactive |
| ULK4 (unc-51 like kinase 4) | 2 | -0.0607 | inactive |
| ULK4 (unc-51 like kinase 4) | 3 | 0.363 | inactive |
| ULK4 (unc-51 like kinase 4) | 4 | -0.486 | inactive |
| RNF182 (ring finger protein 182) | 1 | 0.225 | inactive |
| RNF182 (ring finger protein 182) | 2 | -0.254 | inactive |
| RNF182 (ring finger protein 182) | 3 | -0.274 | inactive |
| RNF182 (ring finger protein 182) | 4 | 0.041 | inactive |
| HTR7 (5-hydroxytryptamine receptor 7) | 1 | 0.272 | inactive |
| HTR7 (5-hydroxytryptamine receptor 7) | 2 | -0.111 | inactive |
| HTR7 (5-hydroxytryptamine receptor 7) | 3 | 0.342 | inactive |
| HTR7 (5-hydroxytryptamine receptor 7) | 4 | -0.18 | inactive |

A portion taken from the entries so far, for reference:
| target gene | reagent no. | log2 vehicle/camptothecin viability | Outcome |
| --- | --- | --- | --- |
| PHF6 (PHD finger protein 6) | 3 | -0.34 | inactive |
| PHF6 (PHD finger protein 6) | 4 | -0.308 | inactive |

Further results follow:
| target gene | reagent no. | log2 vehicle/camptothecin viability | Outcome |
| --- | --- | --- | --- |
| SKI (SKI proto-oncogene) | 1 | -0.0955 | inactive |
| SKI (SKI proto-oncogene) | 2 | -0.186 | inactive |
| SKI (SKI proto-oncogene) | 3 | -0.179 | inactive |
| RAB13 (RAB13, member RAS oncogene family) | 1 | -0.00974 | inactive |
| RAB13 (RAB13, member RAS oncogene family) | 2 | -0.243 | inactive |
| RAB13 (RAB13, member RAS oncogene family) | 3 | 0.1 | inactive |
| RAB13 (RAB13, member RAS oncogene family) | 4 | 0.00644 | inactive |
| ADGRF4 (adhesion G protein-coupled receptor F4) | 1 | 0.147 | inactive |
| ADGRF4 (adhesion G protein-coupled receptor F4) | 2 | -0.0652 | inactive |
| ADGRF4 (adhesion G protein-coupled receptor F4) | 3 | -0.0545 | inactive |
| ADGRF4 (adhesion G protein-coupled receptor F4) | 4 | -0.33 | inactive |
| HUWE1 | 1 | -0.106 | inactive |
| HUWE1 | 2 | 0.0656 | inactive |
| HUWE1 | 3 | 0.203 | inactive |
| TNRC6C (trinucleotide repeat containing adaptor 6C) | 1 | -0.18 | inactive |
| TNRC6C (trinucleotide repeat containing adaptor 6C) | 2 | -0.0229 | inactive |
| TNRC6C (trinucleotide repeat containing adaptor 6C) | 3 | -0.0399 | inactive |
| TNRC6C (trinucleotide repeat containing adaptor 6C) | 4 | -0.179 | inactive |
| SUPT16H (SPT16 homolog, facilitates chromatin remodeling subunit) | 1 | -0.31 | inactive |
| SUPT16H (SPT16 homolog, facilitates chromatin remodeling subunit) | 2 | -0.315 | inactive |
| SUPT16H (SPT16 homolog, facilitates chromatin remodeling subunit) | 3 | 0.19 | inactive |
| SUPT16H (SPT16 homolog, facilitates chromatin remodeling subunit) | 4 | -0.167 | inactive |
